# Some of the results follow. Most entries show no effect beyond the scatter of the controls.
# Amino acid sequences for entries named in this document (tags omitted). A change or cut given only in a name is not applied to a line headed by its entry.
# UniProt Q9D3X5: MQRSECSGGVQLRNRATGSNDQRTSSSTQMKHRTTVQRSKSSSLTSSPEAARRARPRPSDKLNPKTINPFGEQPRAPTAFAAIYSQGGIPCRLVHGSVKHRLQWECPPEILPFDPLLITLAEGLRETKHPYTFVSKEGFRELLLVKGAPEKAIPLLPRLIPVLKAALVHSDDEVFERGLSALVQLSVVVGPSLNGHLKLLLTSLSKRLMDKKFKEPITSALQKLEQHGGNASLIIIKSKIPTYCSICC
# UniProt Q9D8X2: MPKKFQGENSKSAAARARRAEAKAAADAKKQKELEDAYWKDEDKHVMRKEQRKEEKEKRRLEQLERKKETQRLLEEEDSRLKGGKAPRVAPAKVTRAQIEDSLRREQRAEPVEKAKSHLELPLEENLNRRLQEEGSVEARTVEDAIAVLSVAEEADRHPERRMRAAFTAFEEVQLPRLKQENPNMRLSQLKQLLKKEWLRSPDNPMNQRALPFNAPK
# UniProt Q9D240: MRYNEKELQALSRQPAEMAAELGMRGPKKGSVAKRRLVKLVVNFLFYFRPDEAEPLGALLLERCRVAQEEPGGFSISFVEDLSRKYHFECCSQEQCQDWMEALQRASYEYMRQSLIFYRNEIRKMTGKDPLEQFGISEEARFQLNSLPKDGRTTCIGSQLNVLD
# UniProt Q9D1J3: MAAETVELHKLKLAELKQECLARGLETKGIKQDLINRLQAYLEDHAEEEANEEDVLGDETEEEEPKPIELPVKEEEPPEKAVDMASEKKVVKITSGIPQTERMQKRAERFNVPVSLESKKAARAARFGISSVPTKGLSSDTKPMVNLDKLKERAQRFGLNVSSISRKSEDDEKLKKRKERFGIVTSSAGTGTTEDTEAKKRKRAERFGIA
# UniProt Q9D1C8: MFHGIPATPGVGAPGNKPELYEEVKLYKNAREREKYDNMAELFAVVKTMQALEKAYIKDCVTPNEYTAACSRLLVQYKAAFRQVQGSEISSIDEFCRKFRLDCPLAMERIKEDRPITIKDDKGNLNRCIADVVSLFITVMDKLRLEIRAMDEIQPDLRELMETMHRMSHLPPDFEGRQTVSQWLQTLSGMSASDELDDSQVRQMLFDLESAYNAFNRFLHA
# Compound: CN[C@@H]1C[C@H]2O[C@@](C)([C@@H]1OC)n1c3ccccc3c3c4c(c5c6ccccc6n2c5c31)C(=O)NC4 [staurosporine]
# Assay: log2 fold change of tryptic peptide abundance, ligand vs vehicle (limited proteolysis) (log2 ratio); higher = more trypsin-susceptible (destabilized)
# Settings: ligand concentration: 20 uM; sample: mouse liver crude lysate; replicate design: treated separately
row,Target,log2 fold change
1,"UniProt Q9D3X5 (peptide sequence: TINPFGEQPR, peptide start residue: 66)",-0.0255
2,"UniProt Q9D8X2 (peptide sequence: ELEDAYWKDEDK, peptide start residue: 33)",-0.234
3,"UniProt Q9D240 (peptide sequence: FQLNSLPK, peptide start residue: 142)",-0.0143
4,"UniProt Q9D1J3 (peptide sequence: FNVPVSLESKK, peptide start residue: 110)",0.173
5,"UniProt Q9D1C8 (peptide sequence: AMDEIQPDLR, peptide start residue: 149)",-0.0702

# Reference: the supplement of paper PMC12819154, “High-throughput peptide-centric local stability assay extends protein–ligand identification to membrane proteins, tissues and bacteria” (Nature Structural & Molecular Biology, 2025)
